In publication PMC9943875, “Agonist-controlled competition of RAR and VDR nuclear receptors for heterodimerization with RXR is manifested in their DNA binding” (The Journal of Biological Chemistry, 2023) one finds binding data, which are given here for one molecule.

Sequences of proteins named here, by UniProt entry; tags and fusion partners are left off.
UniProt P19793: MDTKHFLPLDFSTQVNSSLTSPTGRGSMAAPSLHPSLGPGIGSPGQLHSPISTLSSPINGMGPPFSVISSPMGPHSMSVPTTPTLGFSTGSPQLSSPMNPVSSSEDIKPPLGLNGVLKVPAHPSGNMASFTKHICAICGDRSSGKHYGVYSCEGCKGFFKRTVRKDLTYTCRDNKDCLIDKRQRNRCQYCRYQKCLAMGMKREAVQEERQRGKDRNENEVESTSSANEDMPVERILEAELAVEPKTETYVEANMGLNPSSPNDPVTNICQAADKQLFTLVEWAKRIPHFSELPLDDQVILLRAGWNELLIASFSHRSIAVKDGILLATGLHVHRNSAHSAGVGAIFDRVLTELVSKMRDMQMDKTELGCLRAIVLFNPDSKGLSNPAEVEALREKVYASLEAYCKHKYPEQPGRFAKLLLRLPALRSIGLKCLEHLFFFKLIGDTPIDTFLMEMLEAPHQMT

Results are given in words; binding and its absence hold for the method and conditions named. In cells and extracts the contact can be indirect. Some results given as binding are weak or reduced against the parent protein; the word gives no strength. Sequences can lack the tags named with a protein.

The assay concerns the target mCherry-RXR (retinoid X receptor alpha, N-terminally tagged with mCherry) (UniProt P19793). Nature of the assay: FRET or BRET; FLIM-FRET in nuclei of live transfected cells; donor EGFP, acceptor mScarlet3 or mCherry; E from amplitude-weighted average donor lifetimes against donor-only samples; cells non-treated or treated with 100 nM calcitriol. On the technique in general: Bioluminescence resonance energy transfer reports proximity on the nanometre scale.

B1: EGFP-VDR (vitamin D receptor, N-terminally tagged with EGFP) (receptor, UniProt P11473 1-427, looked up)
chain: MEAMAASTSLPDPGDFDRNVPRICGVCGDRATGFHFNAMTCEGCKGFFRRSMKRKALFTCPFNGDCRITKDNRRHCQACRLKRCVDIGMMKEFILTDEEVQRKREMILKRKEEEALKDSLRPKLSEEQQRIIAILLDAHHKTYDPTYSDFCQFRPPVRVNDGGGSHPSRPNSRHTPSFSGDSSSSCSDHCITSSDMMDSSSFSNLDLSEEDSDDPSVTLELSQLSMLPHLADLVSYSIQKVIGFAKMIPGFRDLTSEDQIVLLKSSAIEVIMLRSNESFTMDDMSWTCGNQDYKYRVSDVTKAGHSLELIEPLIKFQVGLKKLNLHEEEHVLLMAICIVSPDRPGVQDAALIEAIQDRLSNTLQTYIRCRHPPPGSHLLYAKMIQKLADLRSLNEEHSKQYRCLSFQPECSMKLTPLVLEVFGNEIS
As to B1, the binding entry is listed as “binds”.
